The target of one assay is T1, FimD (E. coli) (UniProt P30130).
T1 sequence: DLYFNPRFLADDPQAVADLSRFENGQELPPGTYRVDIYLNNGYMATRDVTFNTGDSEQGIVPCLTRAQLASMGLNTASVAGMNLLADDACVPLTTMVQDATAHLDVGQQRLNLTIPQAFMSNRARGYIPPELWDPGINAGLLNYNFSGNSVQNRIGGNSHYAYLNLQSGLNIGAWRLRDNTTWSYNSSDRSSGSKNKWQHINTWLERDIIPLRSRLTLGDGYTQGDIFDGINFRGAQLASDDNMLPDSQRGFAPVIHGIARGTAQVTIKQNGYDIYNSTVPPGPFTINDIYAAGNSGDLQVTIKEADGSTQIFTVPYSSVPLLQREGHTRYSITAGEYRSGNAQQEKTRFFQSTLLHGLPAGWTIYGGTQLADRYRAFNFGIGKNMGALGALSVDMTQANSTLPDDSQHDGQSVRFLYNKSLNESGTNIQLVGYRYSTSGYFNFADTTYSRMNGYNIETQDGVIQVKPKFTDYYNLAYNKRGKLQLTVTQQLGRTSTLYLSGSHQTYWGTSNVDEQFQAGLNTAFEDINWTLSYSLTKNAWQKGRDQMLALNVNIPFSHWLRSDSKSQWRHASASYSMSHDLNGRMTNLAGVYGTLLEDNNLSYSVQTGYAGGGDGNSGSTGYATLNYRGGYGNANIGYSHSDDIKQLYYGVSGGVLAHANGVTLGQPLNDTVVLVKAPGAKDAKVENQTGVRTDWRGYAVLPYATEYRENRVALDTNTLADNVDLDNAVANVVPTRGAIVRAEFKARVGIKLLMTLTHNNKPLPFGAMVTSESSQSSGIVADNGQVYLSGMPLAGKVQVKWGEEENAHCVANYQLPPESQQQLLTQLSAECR
Description: co-purification (HisTrap, Strep-Tactin, SEC); FimD, FimC and FimH co-expressed in E. coli Tuner; outer membranes solubilised in 1.5% DDM; HisTrap HP, Strep-Tactin sepharose, Superdex 200 in 0.05% DDM.

The chains behind the UniProt entries cited, without tags or fusion partners. Residues count along the entry.
UniProt P08191, residues 22-300: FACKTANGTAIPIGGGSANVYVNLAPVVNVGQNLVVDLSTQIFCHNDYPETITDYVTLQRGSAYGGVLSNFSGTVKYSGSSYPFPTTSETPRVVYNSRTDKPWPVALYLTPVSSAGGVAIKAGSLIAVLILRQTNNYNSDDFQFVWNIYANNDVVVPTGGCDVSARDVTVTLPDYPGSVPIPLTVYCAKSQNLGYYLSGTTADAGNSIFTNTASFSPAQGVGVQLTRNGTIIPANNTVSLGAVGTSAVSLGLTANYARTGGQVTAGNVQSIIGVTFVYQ
UniProt P31697, residues 37-241: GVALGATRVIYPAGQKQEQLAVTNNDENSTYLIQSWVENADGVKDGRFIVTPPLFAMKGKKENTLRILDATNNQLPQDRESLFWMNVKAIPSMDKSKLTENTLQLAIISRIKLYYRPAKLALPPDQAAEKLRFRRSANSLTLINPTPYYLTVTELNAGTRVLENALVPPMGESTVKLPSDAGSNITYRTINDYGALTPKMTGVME

Another assay has as its target T2, FimG (E. coli) (UniProt P08190).
T2 sequence: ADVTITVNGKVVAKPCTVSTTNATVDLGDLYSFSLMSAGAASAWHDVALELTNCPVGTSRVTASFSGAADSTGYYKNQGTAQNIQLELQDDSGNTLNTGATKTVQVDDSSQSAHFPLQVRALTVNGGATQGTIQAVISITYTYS
Description: co-purification after periplasmic co-expression (ion exchange, hydrophobic interaction chromatography, SEC); FimC co-expressed with FimF or FimG in E. coli HM125; periplasmic extract; Q-sepharose, Phenyl-sepharose, cation exchange, Superdex 75; identity by ESI-MS.

Results are given in words; binding and its absence hold for the method and conditions named. Some entries that bind do so weakly or less than the wild type.

As to FimH (from UniProt P08191 22-300), in the assay with FimD (E. coli), the binding entry is “binds”.

Turning to FimC (from UniProt P31697 37-241), in the assay with FimG (E. coli), the binding result is reported as “binds”.

“FimC of the FimDCH complex (from UniProt P31697 37-241)”: the binding result with FimD (E. coli) is recorded as “binds”.

Source of the values: publication PMC10673952.
